{
  "source": "paper PMC13089345",
  "target": "bovine nonmuscle myosin regulatory light chain (RLC, myosin light chain 9, MYL9) (bovine) (UniProt Q5E9E2)",
  "assay": "cryo-EM structure; dephosphorylated shutdown (10S) NM2A; 140 mM KCl, 10 mM Mops pH 7.2, 0.1 mM EGTA, 2 mM MgCl2, 1 mM ATP; cross-linked with 1 mM BS3 for 30 min at 25°C; head region 3.0 Å, whole molecule 6.3 Å; both purified",
  "note": "Results are given in words; binding and its absence hold for the method and conditions named. Some entries that bind do so weakly or less than the wild type.",
  "data": [
    {"binder": "bovine nonmuscle myosin regulatory light chain (RLC, myosin light chain 9, MYL9) (protein, UniProt Q5E9E2 1-172) MSSKRAKTKTTKKRPQRATSNVFAMFDQSQIQEFKEAFNMIDQNRDGFIDKEDLHDMLASLGKNPTDEYLDAMMNEAPGPINFTMFLTMFGEKLNGTDPEDVIRNAFACFDEEATGTIQEDYLRELLTTMGDRFTDEEVDELYREAPIDKKGNFNYIEFTRILKHGAKDKDD", "values": [
      {"measurement": "binding", "value": "binds"}
    ]}
  ]
}
